Laboratory results: patent EP1313504B1
No constants are given. Whether binding was seen depends on the method and setting. Some entries that bind do so weakly or less than the wild type.

Protein sequences, listed by entry. Tags and fused reporters are not part of them. Residues count along the entry.
UniProt P04272, residues 2-339: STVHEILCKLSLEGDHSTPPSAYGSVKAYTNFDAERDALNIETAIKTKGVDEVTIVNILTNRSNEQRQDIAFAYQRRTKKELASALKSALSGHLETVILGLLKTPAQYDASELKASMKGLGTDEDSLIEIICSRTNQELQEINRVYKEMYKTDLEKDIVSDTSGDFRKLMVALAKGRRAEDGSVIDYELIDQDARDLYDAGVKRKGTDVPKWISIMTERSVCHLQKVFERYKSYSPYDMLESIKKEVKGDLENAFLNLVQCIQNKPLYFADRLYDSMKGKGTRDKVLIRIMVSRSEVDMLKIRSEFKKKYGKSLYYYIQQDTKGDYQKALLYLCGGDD
UniProt P00747, residues 99-459: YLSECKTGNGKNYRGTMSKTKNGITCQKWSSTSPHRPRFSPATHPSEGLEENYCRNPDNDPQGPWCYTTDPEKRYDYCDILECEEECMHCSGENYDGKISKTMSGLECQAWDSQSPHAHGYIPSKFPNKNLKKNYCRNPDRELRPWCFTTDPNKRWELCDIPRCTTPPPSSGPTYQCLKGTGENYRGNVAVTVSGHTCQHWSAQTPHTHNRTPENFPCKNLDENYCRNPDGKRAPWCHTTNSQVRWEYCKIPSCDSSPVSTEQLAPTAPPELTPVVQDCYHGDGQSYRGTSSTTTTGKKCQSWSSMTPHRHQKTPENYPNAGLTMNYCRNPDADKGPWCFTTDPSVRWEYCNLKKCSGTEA

Columns and labels:
[1] = molecular target: annexin II (35 kDa angiostatin binding protein from bovine aortic endothelial cells) (bovine) (UniProt P04272); experiment: ligand blot of purified 35 kDa fractions, angiostatin 1 µg/ml
[2] = molecular target: annexin II (35 kDa angiostatin binding protein from bovine aortic endothelial cells) (bovine) (UniProt P04272); experiment: ligand immunoblot of BAEC membrane fraction, angiostatin 1 µg/ml, detected with anti-K1-3 antibody
[3] = molecular target: annexin II (35 kDa angiostatin binding protein from bovine aortic endothelial cells) (bovine) (UniProt P04272); experiment: ligand blot of BAEC subcellular fractions
[4] = molecular target: annexin II (35 kDa angiostatin binding protein from bovine aortic endothelial cells) (bovine) (UniProt P04272); experiment: ligand blot of BAEC lysate

- binding [1]: binds
- binding [2]: binds
- binding [3]: binds
- binding [4]: binds
Substance: angiostatin (38 kDa elastase fragment of human plasminogen, kringle 1-4) (from UniProt P00747 99-459) (ligand)
